Not every detail of the peptide structures is certain; ends, links or a residue may be inferred. Residues, ends and D or L forms follow the SMILES beside them.
Tested on: sheep erythrocyte (SRBC)-induced DTH reactions
Assay: Sheep erythrocyte (SRBC)-induced DTH, footpad volume
Format: in vivo, Balb/C mice
Details: pentigetide 10.0 mg/kg, days 2, 3, 4; about 24 h after challenge

SMILES: N=C(N)NCCC[C@H](NC(=O)[C@@H]1CCCN1C(=O)[C@H](CC(=O)O)NC(=O)[C@H](CO)NC(=O)[C@@H](N)CC(=O)O)C(=O)O [pentigetide, Asp-Ser-Asp-Pro-Arg] (H-DSDPR-OH)
- Percent Inhibition (footpad swelling): 19%
